Results deposited as PubChem BioAssay AID504784 (Drosophila RNAi Screening Center, 2011)

- Purpose: 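Genome-wide knock-down for genes giving too much or too little stored lipid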 (primary screen)
- System: Drosophila Kc167 embryonic cells
- Knock-down reagent: long dsRNA against Drosophila genes, about 250 ng dsRNA per well
- Timing: 4 days
- Challenge: cells fed 400 µM oleic acid bound to BSA
- Measurement: 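Cells imaged and segmented; ratio of lipid droplet area to nuclear area, log-transformed, then normalised as a B-score over the screen; higher means more stored lipid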
- Direction: droplet/nuclear area B-score: higher = more stored lipid (overstorage)
The deposit covers about 17,000 reagents; shown is an unselected part of those with a known target gene and a result. 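Each column is one replicate's B-score; the combined score over replicates was not deposited, so single values may mislead.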 Further read-outs or replicates are left out here. No sequences are given here.

gene knocked down | dsRNA | droplet/nuclear area B-score, replicate 1 | droplet/nuclear area B-score, replicate 2
ZAP3 (GeneID 31942) | DRSC17852 | 1.55 | -0.145
ZAP3 (GeneID 31942) | DRSC17853 | -3.77 | -0.449
ZAP3 (GeneID 31942) | DRSC18249 | -0.547 | 0.0847
JhI-26 (GeneID 36819) | DRSC06851 | -0.623 | –
CG17919 (GeneID 40780) | DRSC12571 | -0.594 | 0.293
Roc2 (GeneID 36246) | DRSC07313 | -0.387 | -0.115
CG5181 (GeneID 34018) | DRSC02825 | 1.01 | -0.0701
CG16826 (GeneID 34741) | DRSC02527 | -3.78 | 1.7
mei-38 (GeneID 31104) | DRSC18564 | -0.21 | -1.12
rumi (GeneID 326122) | DRSC15177 | -2.2 | 0.162
CG6409 (GeneID 39220) | DRSC10630 | -1.41 | 0.0456
CG6409 (GeneID 39220) | DRSC22330 | -1.04 | -0.816
hang (GeneID 32613) | DRSC19901 | 0.341 | 1.4
hang (GeneID 32613) | DRSC19902 | 1.04 | -0.571
hang (GeneID 32613) | DRSC23216 | 0.349 | -0.0343
mRpL19 (GeneID 41028) | DRSC16367 | 0.198 | 0.746
mRpL19 (GeneID 41028) | DRSC21618 | -0.939 | -1.42
CG8475 (GeneID 34114) | DRSC03091 | -0.808 | -2.84
CG5191 (GeneID 42431) | DRSC15733 | -1.07 | -0.618
CG5191 (GeneID 42431) | DRSC15734 | -1.02 | -0.957
CG5191 (GeneID 42431) | DRSC21559 | 0.4 | 1.08
CG8750 (GeneID 50285) | DRSC11037 | 0.494 | -1.93
CG34461 (GeneID 5740547) | DRSC10767 | -2.46 | 0.376
CG32679 (GeneID 318150) | DRSC17644 | -0.697 | 0.392
shg (GeneID 37386) | DRSC04714 | -0.132 | 0.0825
CG5986 (GeneID 192506) | DRSC15931 | -1.39 | -2.56
Lpt (GeneID 37795) | DRSC04291 | 0.0587 | -1.3
Lpt (GeneID 37795) | DRSC04515 | -1.92 | -0.444
Cpr72Ea (GeneID 39814) | DRSC10451 | 0.0253 | 0.165
eff (GeneID 41785) | DRSC16940 | -0.339 | 1.86
Obp93a (GeneID 42506) | DRSC15220 | -0.904 | -0.842
Gr10a (GeneID 117501) | DRSC18897 | 0.114 | -0.00366
Gr10a (GeneID 117501) | DRSC22792 | -0.61 | -1.38
CG32061 (GeneID 39196) | DRSC22605 | -0.0474 | 0.00641
Jhbp13 (GeneID 34729) | DRSC02913 | -1.41 | 0.0419
CG3860 (GeneID 37825) | DRSC04425 | -0.463 | -0.311
Capr (GeneID 59172) | DRSC10346 | -0.883 | -1
Ir62a (GeneID 3885628) | DRSC08250 | 0.178 | -1.23
Ubr3 (GeneID 31713) | DRSC17987 | 0.00443 | 0.451
Ubr3 (GeneID 31713) | DRSC17997 | -1.75 | -1.36
CG31008 (GeneID 318554) | DRSC14028 | -0.783 | 0.281
mtd (GeneID 45467) | DRSC12131 | -2.75 | -0.998
mtd (GeneID 45467) | DRSC12380 | -1.69 | -0.492
mtd (GeneID 45467) | DRSC12381 | 2.51 | -0.524
Stam (GeneID 34505) | DRSC03444 | -0.358 | 0.171
inv (GeneID 36239) | DRSC07633 | -0.758 | -0.129
NijA (GeneID 39215) | DRSC10637 | -0.428 | -2.54
Mst36Fa (GeneID 318948) | DRSC21564 | 0.209 | -0.281
CG30484 (GeneID 36534) | DRSC05457 | -2.51 | -1.26
Or67b (GeneID 39120) | DRSC11241 | 0.0955 | -0.415
CG6733 (GeneID 42731) | DRSC16103 | -0.234 | 0.45
Cpr23B (GeneID 33480) | DRSC00555 | 2.5 | -0.249
beat-IIIc (GeneID 35037) | DRSC02438 | -0.346 | 0.636
beat-IIIc (GeneID 35037) | DRSC02949 | -0.309 | 0.123
RpS3A (GeneID 43768) | DRSC17168 | 3.22 | 2.09
CG15356 (GeneID 33370) | DRSC00386 | -1.34 | 1.1
CG17777 (GeneID 50374) | DRSC18137 | -2.06 | 0.125
CG6984 (GeneID 36926) | DRSC07013 | 3.55 | -4.02
CG30095 (GeneID 246453) | DRSC07175 | 0.0762 | 1.72
CG15506 (GeneID 43498) | DRSC15047 | 0.531 | -0.138
CG11498 (GeneID 43585) | DRSC14315 | -1.63 | -0.00527
Prim2 (GeneID 44915) | DRSC11610 | 1.15 | 1.01
Pal1 (GeneID 36033) | DRSC06106 | 1.08 | 0.218
ReepB (GeneID 36569) | DRSC07150 | 1.42 | -0.215
pie (GeneID 44315) | DRSC03590 | -0.17 | 0.27
betaTub97EF (GeneID 43359) | DRSC15666 | 0.205 | 0.668
betaTub97EF (GeneID 43359) | DRSC15667 | -0.271 | 0.718
betaTub97EF (GeneID 43359) | DRSC15668 | -0.0474 | -0.792
CG14691 (GeneID 41287) | DRSC14914 | -0.334 | -0.578
CG12061 (GeneID 3354990) | DRSC20715 | 0.264 | 0.0023
atilla (GeneID 34647) | DRSC02971 | -1.56 | -0.988
CG13168 (GeneID 36327) | DRSC06295 | -1.3 | 0.748
nAChRalpha3 (GeneID 31767) | DRSC18800 | -0.0202 | 0.441
pyr (GeneID 36255) | DRSC06319 | -1.06 | 1.99
pyr (GeneID 36255) | DRSC22520 | 1.12 | -0.888
nac (GeneID 40981) | DRSC16520 | -1.09 | -0.56
fliI (GeneID 33110) | DRSC20578 | -1.43 | 0.00321
RhoGDI (GeneID 40179) | DRSC10919 | 0.217 | -1.13
Proc (GeneID 250710) | DRSC03009 | 1.09 | -0.843
Proc (GeneID 250710) | DRSC22998 | 0.0672 | -0.692
Orc4 (GeneID 37970) | DRSC04634 | -2.58 | -0.758
CG31415 (GeneID 318722) | DRSC22409 | 0.0137 | 0.699
CG12560 (GeneID 34092) | DRSC02174 | -1.93 | -0.372
Ir7b (GeneID 31690) | DRSC18009 | -1.92 | -1.12
Ced-12 (GeneID 34633) | DRSC02840 | -2.21 | -1.18
CG8299 (GeneID 36751) | DRSC07139 | 0.614 | 0.695
Lsp1gamma (GeneID 38015) | DRSC08672 | -0.0723 | -0.454
stl (GeneID 37619) | DRSC04396 | -0.326 | -0.816
CG13116 (GeneID 34288) | DRSC02214 | 0.0893 | -0.587
CG13116 (GeneID 34288) | DRSC21945 | 0.357 | -0.656
Fmo-1 (GeneID 37814) | DRSC04328 | 0.4 | 1.66
CG9436 (GeneID 35586) | DRSC05005 | -1.47 | -2.44
Cpr47Eb (GeneID 36189) | DRSC06345 | -0.053 | 0.655
Obp83ef (GeneID 40747) | DRSC12268 | 1.28 | 0.06
Eato (GeneID 34783) | DRSC01891 | 1.65 | 0.566
Eato (GeneID 34783) | DRSC03061 | -0.479 | 1.12
CG5532 (GeneID 37761) | DRSC04509 | 2.96 | 2.91
Msr-110 (GeneID 38629) | DRSC11227 | 0.861 | -0.477
ND-49L (GeneID 43073) | DRSC14437 | 0.414 | 1.11
CG9919 (GeneID 32598) | DRSC20219 | 2.87 | -6.62
mthl5 (GeneID 41438) | DRSC16155 | 1.4 | 0.666
CG1213 (GeneID 40728) | DRSC12191 | -0.318 | -0.0682
BG642163 (GeneID 4379888) | DRSC00342 | 1.07 | -0.445
BG642163 (GeneID 4379888) | DRSC00343 | 0.14 | 0.383
Nup154 (GeneID 34527) | DRSC03384 | -0.905 | -0.27
